From patent US20130157945A1 come the findings set out here.

Protein sequences, listed by entry. Tags and fused reporters are not part of them. Residues count along the entry.
UniProt P20333, residues 23-257: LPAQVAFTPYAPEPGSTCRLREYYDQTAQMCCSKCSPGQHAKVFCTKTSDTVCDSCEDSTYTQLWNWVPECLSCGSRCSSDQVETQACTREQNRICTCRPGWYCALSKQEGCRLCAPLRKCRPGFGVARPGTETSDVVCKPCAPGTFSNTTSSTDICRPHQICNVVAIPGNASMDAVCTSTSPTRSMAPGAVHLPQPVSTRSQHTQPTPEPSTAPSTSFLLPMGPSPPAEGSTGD
UniProt P19438, residues 30-211: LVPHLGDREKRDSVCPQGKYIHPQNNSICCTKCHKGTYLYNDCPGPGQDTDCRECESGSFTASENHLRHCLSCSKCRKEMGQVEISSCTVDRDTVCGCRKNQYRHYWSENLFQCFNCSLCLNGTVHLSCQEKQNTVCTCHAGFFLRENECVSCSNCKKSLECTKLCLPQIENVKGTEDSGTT

Results are given in words; binding and its absence hold for the method and conditions named. Some binding calls cover weakened binding; strength is not graded here. Sequences can lack the tags named with a protein.

The target in assay [1] is TNFR2 (as used in the surface plasmon resonance assays) (UniProt P20333). The experiment in a line: surface plasmon resonance (FIG. 28). In general terms: In SPR one partner is held on a chip, and binding of the other changes the refractive index at the surface.
Assay [2] addresses TNFR1 (as used in the surface plasmon resonance assays) (UniProt P19438). Put plainly: surface plasmon resonance (FIG. 28).

B1: Atsttrin (recombinant, released from GST-Atsttrin by factor Xa) (peptide)
chain: PQASCCEDRVHCCPHGAFCDLVHTRCITPTGTHPLAKKLPAQRTNRAVALSSSASSKENATTDLLTKLPAHTVGDVKCDMEVSCPDGYTCCRLQSGAWPWCEQGPHQVPWMEKAPAHLSLPDPQALKRDVPCDNVSSCPSSDTCCQLTSGEWGCCPIP
B1: the binding result in assay [1] and in assay [2] was “binds” each time.
